Measured values taken from patent publication US20040109864A1.
These are yes or no findings as the source states them, for the method shown. Some results given as binding are weak or reduced against the parent protein; the word gives no strength.

Amino acid sequences for entries named in this document (tags omitted). A change or cut given only in a name is not applied to a line headed by its entry. Residues count along the entry.
UniProt P04272, residues 2-339: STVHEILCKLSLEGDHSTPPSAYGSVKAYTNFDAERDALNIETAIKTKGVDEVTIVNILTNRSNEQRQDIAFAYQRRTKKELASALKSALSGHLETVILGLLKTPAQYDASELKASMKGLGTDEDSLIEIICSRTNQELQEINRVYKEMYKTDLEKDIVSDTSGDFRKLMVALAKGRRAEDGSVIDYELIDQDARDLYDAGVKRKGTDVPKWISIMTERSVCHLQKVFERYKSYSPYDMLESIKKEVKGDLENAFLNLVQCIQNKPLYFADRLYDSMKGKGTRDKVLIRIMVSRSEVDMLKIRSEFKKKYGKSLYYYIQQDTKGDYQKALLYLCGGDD
UniProt P00747: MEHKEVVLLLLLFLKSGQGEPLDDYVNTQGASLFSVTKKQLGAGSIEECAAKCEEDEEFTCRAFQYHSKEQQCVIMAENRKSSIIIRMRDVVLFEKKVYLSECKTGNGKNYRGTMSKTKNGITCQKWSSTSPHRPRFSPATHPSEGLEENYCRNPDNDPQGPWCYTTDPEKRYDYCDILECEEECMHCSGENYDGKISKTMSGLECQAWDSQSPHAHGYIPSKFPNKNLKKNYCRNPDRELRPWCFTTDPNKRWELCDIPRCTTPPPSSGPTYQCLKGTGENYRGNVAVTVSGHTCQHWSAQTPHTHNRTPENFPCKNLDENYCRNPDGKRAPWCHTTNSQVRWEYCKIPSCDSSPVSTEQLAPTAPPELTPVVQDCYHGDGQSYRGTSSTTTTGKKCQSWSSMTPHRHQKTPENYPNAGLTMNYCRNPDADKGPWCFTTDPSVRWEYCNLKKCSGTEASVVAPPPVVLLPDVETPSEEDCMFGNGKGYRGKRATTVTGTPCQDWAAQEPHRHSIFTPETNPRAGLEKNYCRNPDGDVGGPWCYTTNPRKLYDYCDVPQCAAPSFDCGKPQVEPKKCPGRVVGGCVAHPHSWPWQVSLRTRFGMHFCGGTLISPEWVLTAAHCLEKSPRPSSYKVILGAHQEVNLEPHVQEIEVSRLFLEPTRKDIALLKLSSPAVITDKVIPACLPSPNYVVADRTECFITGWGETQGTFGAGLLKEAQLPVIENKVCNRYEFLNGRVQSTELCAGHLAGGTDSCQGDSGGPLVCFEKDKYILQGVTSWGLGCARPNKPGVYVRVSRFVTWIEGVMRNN

Tests used:
[1] = target: annexin II, 35 kDa angiostatin binding protein purified from bovine aortic endothelial cells (bovine) (UniProt P04272); experiment: radioligand binding to annexin II on Protein A Sepharose gel
[2] = target: annexin II, 35 kDa angiostatin binding protein purified from bovine aortic endothelial cells (bovine) (UniProt P04272); experiment: ligand blot of purified 35 kDa fractions, angiostatin 1 ug/ml
[3] = target: annexin II, 35 kDa angiostatin binding protein purified from bovine aortic endothelial cells (bovine) (UniProt P04272); experiment: solid phase radioligand binding, annexin II coated on plates

plasminogen (from UniProt P00747 20-810) (ligand)
binding [1]: binds

angiostatin (38 kDa kringle 1-4 fragment of human plasminogen, made by limited digestion with bovine pancreatic elastase) (from UniProt P00747 99-459) (ligand)
binding [1]: binds
binding [2]: binds
binding [3]: binds
